{"source": "patent US10264790B2", "about": "“Use of certain herbicide combinations based on iodosulfuron in teff plants” (BAYER CROPSCIENCE AKTIENGESELLSCHAFT, priority 2016, dated 2019)", "origin": "cited, not measured here", "tested_on": "teff (Eragrostis tef)", "conditions": "post-emergence applications; 8 week after treatment; field studies Kansas", "note": "Some entries share one result that the patent states for a list of compounds.", "data": [{"compound": "Cc1nn(-c2cc(CC(Cl)C(=O)O)c(Cl)cc2F)c(=O)n1C(F)F", "note": "(stereo not shown) [carfentrazone]", "values": [{"measurement": "injury on teff", "result": "less than 5%"}]}]}
